These results are taken from PubChem BioAssay.

The entries are a selection whose mix differs from that of the whole data set. Calls of active or inactive are those of the source.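 Rule for the calls: active = inhibition above a set limit taken from the earlier primary screen (cut at about 63% in these data); inactive = the rest.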

A short description of the assay: suppression of KLF5 promoter-driven luciferase – DLD-1 cells, luminescence, confirmation (AID 1834).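 Note: 0% = DMSO wells and 100% = LY294002 at 200 µM.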 Particulars: DLD-1 KLF5 promoter firefly luciferase reporter, at 4 µM, stronger effect = higher value. Background: In a reporter assay the amount or activity of a reporter protein is the signal.

One may read the inhibition as the change of the read-out against control, counted positive when it falls. For the compound `CN[C@H]1C[C@H]2O[C@@](C)([C@H]1OC)n1c3ccccc3c3c4c(c5c6ccccc6n2c5c31)C(=O)NC4`, the inhibition is active: 115%.
